For 106 sequences, z-score results are on record in PubChem BioAssay AID1508600 (Functional Genomics Laboratory (NCATS/FGL), 2020).

Out of some 53,000 sequences screened, about 3,700 (7%) were called active.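 The calls were made as follows: active = gene knockdowns whose robust z-score for IL-1 alpha signal is at least 2 or at most -2, so actives lie on both sides; inactive = the rest.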 Some of the results follow.

This test is described as follows: Components of the Cytosolic LPS Sensing Pathway: Gene Identification via Genome-wide siRNA Screen.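 Also: robust z of the log signal after scaling to non-targeting control siRNA wells of the plate.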 The conditions noted are these: RAW264.7 macrophages, IL-1a HTRF, actives lie on both sides, screened at 100 nM (by protocol), cells primed 5 h with Pam3CSK4 first. The method in brief:
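Cells (RAW264.7, 1×10^4 per well) were transfected with siRNA at 100 nM and cultured 48h at 37 degrees C. Pam3CSK4 was added for 5 hours; LipidA transfection followed for 24 hour. IL-1a was then measured by HTRF.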
A general note: Time-resolved FRET reads energy transfer from a long-lived donor to a nearby acceptor.
Regarding GGGCCAAAAGCUUAUUAAUTT against Arhgap20, the z-score is inactive: 0.542.
Regarding GGCCUGGUUCUGCAUAAGCTT against Gas2, the z-score was inactive: 0.458.
The same measure for GGUUUAGGGCUUGCUAUAUTT against Mal: inactive: -0.244.
The same measure for GCCUUAAGGUCUCCGUUCUTT against Gse1: inactive: 0.467.
The value for GUGGUCGGAAACACAAAGATT against Snrpc was inactive: -0.296.
On to GGGACAAGGACUUUAAAAATT against Scamp2, for which the z-score was inactive: 0.566.
With GGAGUGAUAGAAUCAACAUTT against Manea, the z-score is inactive: -0.369.
The same measure for CCCAUUGAACUGCAUACUATT against Car3: inactive: 0.296; for GGAGCUCUAUAGAAAUGCATT against Cul3: inactive: -1.45; for GGCUUGGUGUUUUGAUUAGTT against Rogdi: inactive: 1.6.
The same measure for GGAGCUCCUGAACAGGAUCTT against Gpr26: active: 2.13; for GGCAUGCUAGGAGACAAGATT against Sh3rf3: inactive: 0.148; for CCAUAUGUAGCUAUGGUUATT against Cul2: inactive: 0.741.
The value for GGCUGAAGAACCCUCCAAUTT against Plb1 was inactive: -0.8.
With GGCAGCUGUUCAUCAUUACTT against Nudt16l1, the z-score was inactive: 1.97.
The same measure for GGAUACCAUCCUAGGCCUGTT against Ephx3: inactive: -0.603; for GGCUAUGUGCUGCACUUGCTT against Cyp27a1: inactive: -0.282.
The value for GCUUAACUAGUAUCCUAUGTT against Tas2r135 was inactive: -0.228; that for GGGCUUCACUAAUGUCAAGTT against Gipc1 was inactive: -0.57.
GGUUCACCCAGGAAGUUCATT against Scn9a: the z-score is inactive: -1.13.
The same measure for GGGCCAAGGAAGAACUUCATT against Clec12a: inactive: -0.655; for GCAUUGAAAUCGUUAAAGCTT against Gorab: inactive: -0.324.
The same measure for GGUACAAAGAUGGUUGCGATT against Alkbh2: inactive: 0.451; for “CCCAUUGUGGGCUUAUGGATT against 9430025C20Rik”: inactive: -1.71; for GCAGCUUUUGUACUAUCUATT against Kifap3: inactive: 0.92.
The value for GGCCAUUGUAGAGCUGGUATT against Myh9 was inactive: 0.47.
For the sequence CCUGUUUGCAUAGAUAGACTT against Pdgfc, the z-score was inactive: -0.464.
Regarding GGAACAAGGAUGUAAAAUUTT against Olfr1090, the z-score is inactive: -0.751.
The same measure for “GGGCAUGAUAAGGAAGACATT against 1700029F12Rik”: inactive: -1.32; for AACUGUCACCGUUCAAACCTT against Ociad2: inactive: 0.632; for GCAGGUUGCACCAUGUAGATT against Slc25a42: inactive: 0.701.
As for GCUGCUAAAGGUGACAUUCTT against Col4a4, the z-score was inactive: 0.129.
The value for GCAAUGAGUAUUCAUGCAATT against Sec61a2 was inactive: -1.86; that for GGGACUAUGACAAAACAGCTT against Atad2 was inactive: 0.0122; that for GCUGUCUUAUUGUGAACCUTT against Olfr1173 was inactive: -1.52.
The same measure for GGUCCUACCAUCUUAUAUGTT against Serpina5: inactive: 1.63; for CGCGAGUUAUUUCUCAUAUTT against Pik3cb: inactive: -0.0248; for AUAACUACGUAUGUGAUGUTT against Olfr885: inactive: -0.278.
The value for GGUGAAGAAGAUGACAUUATT against Spock3 was inactive: -0.795.
As to GAAAUAGAUGAAGACCGGATT against Ppp1r1a, the z-score is inactive: -0.0759.
Consider CCUUUGUGUAUUCAAGGAGTT against Plekhg2, for which the z-score is inactive: -0.725.
The same measure for GGACAAUGUGAUGAAGAUUTT against Fgfr3: inactive: -0.843; for CCCUCUACUAUGCGUUCUATT against Otop3: inactive: 0.705.
The value for CGGGACUGUAAAUUGACCUTT against Scube3 was inactive: 0.272; that for GCUAUUCAAGUUUAUACGCTT against Tmed5 was inactive: 0.677.
For GGGCUUUAAGGAAAAGUUUTT against Higd2a, the z-score is inactive: 0.475.
The same measure for GGGCUCUUUAGUACUAGAATT against Spn: inactive: -0.612; for GGAAGUUCAGAAAAAGGCATT against Slc46a3: inactive: -0.0487; for GGUCAUUGCCACACAGAUCTT against Chac1: inactive: 0.623.
The same measure for GGAAGAGACGAAAUCCUUUTT against Sos1: inactive: 0.605.
CCCUCACAUUCGUCUACCUTT against Mchr1: the z-score was inactive: 0.0952.
The value for GGACUCUGGUUAGGAGUUGTT against Tbce was inactive: -1.24; that for GUCUACCAGAUCCUUCCCUTT against H2-Q8 was active: -2.25; that for GGUUCCAAGAGUGACAAUATT against Nnt was inactive: -1.05.
The same measure for CCCGUAACCAUUUACUGGUTT against Tyro3: inactive: 0.85; for GCCCAGCUCAAAUCUCCAUTT against Defb41: inactive: 1.05; for GCUUCCAAGAUGGAACUACTT against Psmb10: inactive: 0.657.
Take GGGCAAGGAUUCCCUGUAUTT against Rpl36al: the z-score was inactive: -1.72.
The same measure for GCUGAAACAAAGGGUAUAUTT against Map2k7: inactive: -1.28; for GCUUAAGUGGAGGUCCCUUTT against Tmem151a: inactive: 0.0731; for GGACACCUCCAAGAAGAGUTT against Ap1s1: inactive: 0.389.
The value for GCAUUGGAUACCCUCAGUATT against Krtap19-2 was inactive: -0.521; that for GGUUUUUCUAGCUACAUUATT against Slc17a5 was inactive: 0.763; that for CCAAGGCUUGUGGCCUUAUTT against Comtd1 was inactive: -0.457.
The value for GCACUAUGAACGGAAGUUGTT against Map3k12 was inactive: -0.807; that for GGCAGUGAUAUACAGGUGGTT against Ptpn14 was inactive: -0.221.
Consider GCCGAGAAUUAUAUUUAACTT against Itga2, for which the z-score is inactive: 0.45.
Turning to GGAGAGCAUUCCUUGGAUUTT against Rxfp2, the z-score was inactive: 1.35.
The same measure for GGGAAGGAACAGUAAAUAATT against Zfp33b: inactive: -1.07; for GGAGUUCAUGCAAGUCCGATT against Tmem138: inactive: 1.01; for GCAAUCUGUCCUUCUGUGATT against Olfr1133: inactive: -0.818.
The value for GCAAUGACUUGAACUAUUUTT against Dipk2b was inactive: 0.163.
The same measure for GCUACAAGAGAACAAUAGCTT against Lcn2: inactive: -0.59; for GGUUCUGAUGAGUCUCAUGTT against Mmadhc: inactive: -1.51; for GGCUUAAGGACAAGAAGAUTT against Gsn: inactive: -0.747.
As for GGAGAAAGAAGCCUCUCCATT against Mageb18, the z-score was inactive: 1.11.
Turning to GGACAGAAGUGCAACAUCUTT against Dio1, the z-score was inactive: -0.0837.
The value for GGAAUCCUCACCAGCUUAATT against Slc50a1 was inactive: -1.23; that for GGGAAGGAUCACGAGGUUGTT against Dtwd1 was inactive: 0.964; that for GGAACAGUUACUUGAGAGUTT against Zfp786 was inactive: 0.759.
For GAGAGUGAUCACUUAGGCATT against Gm10319, the z-score was inactive: -0.00379.
The same measure for CCGCGUGUAUAAGUUGGUGTT against Mrpl9: inactive: 1.23.
The same measure for GCACUCAUACCUUAAGCUUTT against Clec2g: inactive: 0.786.
The value for GGUUGGACGUGGUGAAGAATT against Chtf18 was active: -2.24; that for GCCACUGCUAUAUUCGCAUTT against Slc35d3 was inactive: 0.0899; that for GGAAGUCAGACAGAUUUAATT against Prss33 was active: 2.69.
Take GGGUCAGAUGCAGACUGUUTT against Fam110c: the z-score is inactive: 0.739.
The value for CCGGAGAGAAGGUCUAAUGTT against Galnt2 was inactive: 0.109.
The same measure for CGUAAAUAUGCCCGUAGUUTT against Bpifa1: inactive: 0.31; for GCUGGAUUUGGACUCUUAGTT against Vmn1r16: inactive: 1.1.
The same measure for GGUAACUGUGGAGAACUUUTT against Pigk: inactive: 0.573; for GGAGAUUUCUGAAACUAGATT against Tiaf2: active: -2.09.
As to GGAGUGAAGAGAAAUGAGATT against Lat2, the z-score is inactive: -1.81.
The same measure for GCUUAUCAAAACAUCGUGATT against Zfp536: inactive: 1.05; for GGAGAUGAUGAUUUACAAATT against Spred1: inactive: 0.723.
The value for GGAGAUGGGUGUCUUGGAGTT against Myo5c was inactive: 0.587.
The value for GGAUACAGUCAGACUCUUGTT against Blmh was inactive: -0.187.
As to GAUUUUCCUCUACUGUCCUTT against U90926, the z-score was inactive: -0.532.
The value for GGUUCUGAGGACAUGUGCATT against Asb18 was inactive: 0.603; that for GGUCAUUCACGUCUGCGUUTT against Kcnj8 was inactive: -0.292.
The value for GGUGAAGUACAGAAUAUGCTT against Sycp3 was inactive: 0.0795; that for GGGACUCUUCUACGAGUUUTT against Lims2 was inactive: 0.836; that for GCCGUUAAACAGUUCUCCCTT against Cyb561a3 was inactive: -0.455.
With GGAGAAAUACAACUGAAAATT against Pcdhb7, the z-score is inactive: -0.0269.
The value for CGGGUUUCAUUAUUAUUCCTT against Foxa1 was inactive: -0.352; that for GGUUUUUGCCAAACUCUUUTT against Wbp1l was inactive: 1.54.
